Numbering of substitutions follows the chain as printed. This is one part of the list. Calls are pooled over several reports, among them a noisy single-well screen.
Tests used:
Settings in all cases: stereoisomer not certain
[1] = tested on: T1, O10J5
T1 sequence (whole entry): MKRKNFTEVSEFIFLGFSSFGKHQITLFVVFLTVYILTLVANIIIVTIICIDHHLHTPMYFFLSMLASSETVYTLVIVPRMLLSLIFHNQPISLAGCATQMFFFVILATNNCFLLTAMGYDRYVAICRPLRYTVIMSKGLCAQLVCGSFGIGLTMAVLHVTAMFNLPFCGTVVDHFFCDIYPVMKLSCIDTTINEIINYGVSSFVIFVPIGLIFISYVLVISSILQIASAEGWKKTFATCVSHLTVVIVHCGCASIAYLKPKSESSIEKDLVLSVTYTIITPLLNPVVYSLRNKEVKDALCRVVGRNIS
How it was run: (§1)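 Each entry records the cell line, G-protein, co-transfected protein and tags used. Methods varied with the source, often transient luciferase assays in mammalian cell lines. A receptor–molecule pair is called responsive (active) if the original authors judged its signal statistically different from baseline and non-responsive (inactive) otherwise.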

Chains of the proteins cited; added tags and fusions are not shown. A line that says so, or that is headed by a name, gives the form on record, which may keep a tag or linker.
O11H2, as listed by the source: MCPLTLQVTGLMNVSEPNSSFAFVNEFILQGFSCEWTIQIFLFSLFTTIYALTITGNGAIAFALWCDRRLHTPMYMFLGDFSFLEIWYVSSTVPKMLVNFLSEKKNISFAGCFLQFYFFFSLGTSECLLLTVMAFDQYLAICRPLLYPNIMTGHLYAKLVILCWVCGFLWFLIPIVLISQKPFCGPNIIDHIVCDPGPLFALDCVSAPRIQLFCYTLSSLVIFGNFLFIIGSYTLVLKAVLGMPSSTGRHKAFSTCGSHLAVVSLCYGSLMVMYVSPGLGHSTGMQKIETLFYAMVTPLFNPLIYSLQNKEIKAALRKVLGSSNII

[2] = tested on: T2, O10P1
T2 sequence (whole entry): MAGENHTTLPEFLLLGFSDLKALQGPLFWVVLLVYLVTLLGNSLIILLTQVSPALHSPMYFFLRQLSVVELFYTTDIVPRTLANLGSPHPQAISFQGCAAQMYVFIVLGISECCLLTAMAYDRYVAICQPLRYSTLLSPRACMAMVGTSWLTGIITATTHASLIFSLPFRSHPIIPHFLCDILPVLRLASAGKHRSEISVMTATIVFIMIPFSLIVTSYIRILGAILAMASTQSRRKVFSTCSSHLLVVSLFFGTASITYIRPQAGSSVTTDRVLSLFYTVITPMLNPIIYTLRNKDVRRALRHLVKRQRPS
How it was run: as §1

[3] = tested on: T3, O10Q1
T3 sequence (whole entry): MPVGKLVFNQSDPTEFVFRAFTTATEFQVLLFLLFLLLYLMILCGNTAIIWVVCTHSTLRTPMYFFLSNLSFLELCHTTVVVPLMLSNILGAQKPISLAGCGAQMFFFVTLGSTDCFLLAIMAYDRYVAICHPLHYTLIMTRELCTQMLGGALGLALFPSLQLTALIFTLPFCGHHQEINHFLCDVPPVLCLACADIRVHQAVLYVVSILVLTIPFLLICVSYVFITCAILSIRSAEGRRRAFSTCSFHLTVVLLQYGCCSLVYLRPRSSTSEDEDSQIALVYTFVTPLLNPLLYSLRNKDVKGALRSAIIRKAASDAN
How it was run: as §1

[4] = tested on: T4, O10R2
T4 sequence (whole entry): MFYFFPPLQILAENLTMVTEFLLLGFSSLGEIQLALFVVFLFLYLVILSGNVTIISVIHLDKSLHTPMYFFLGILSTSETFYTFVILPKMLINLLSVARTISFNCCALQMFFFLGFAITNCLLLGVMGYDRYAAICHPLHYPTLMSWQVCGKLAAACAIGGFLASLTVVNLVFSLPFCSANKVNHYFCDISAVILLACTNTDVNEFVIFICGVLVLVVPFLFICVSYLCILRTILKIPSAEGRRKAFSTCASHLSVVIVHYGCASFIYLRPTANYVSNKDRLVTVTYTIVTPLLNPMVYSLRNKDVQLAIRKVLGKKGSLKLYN
How it was run: as §1

[5] = tested on: T5, O10R2; remark: listed apart in the source
T5 sequence (whole entry): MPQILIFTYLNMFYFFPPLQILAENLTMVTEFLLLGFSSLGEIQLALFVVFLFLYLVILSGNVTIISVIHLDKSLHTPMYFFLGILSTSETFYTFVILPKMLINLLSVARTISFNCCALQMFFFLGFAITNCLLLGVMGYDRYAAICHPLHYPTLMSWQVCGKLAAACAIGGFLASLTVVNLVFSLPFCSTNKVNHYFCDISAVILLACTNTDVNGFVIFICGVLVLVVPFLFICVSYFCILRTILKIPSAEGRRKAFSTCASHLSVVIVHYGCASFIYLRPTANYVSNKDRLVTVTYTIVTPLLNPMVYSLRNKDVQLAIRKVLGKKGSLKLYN
How it was run: as §1

[6] = tested on: T6, O10V1
T6 sequence (whole entry): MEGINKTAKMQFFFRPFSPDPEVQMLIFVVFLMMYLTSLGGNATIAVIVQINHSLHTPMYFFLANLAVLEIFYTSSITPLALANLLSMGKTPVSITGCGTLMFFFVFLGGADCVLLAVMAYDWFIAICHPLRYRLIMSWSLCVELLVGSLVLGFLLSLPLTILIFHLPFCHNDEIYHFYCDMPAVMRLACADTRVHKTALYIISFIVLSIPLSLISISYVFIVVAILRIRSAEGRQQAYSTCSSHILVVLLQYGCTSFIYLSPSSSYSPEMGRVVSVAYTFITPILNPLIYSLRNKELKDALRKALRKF
How it was run: as §1

[7] = tested on: T7, O10W1
T7 sequence (whole entry): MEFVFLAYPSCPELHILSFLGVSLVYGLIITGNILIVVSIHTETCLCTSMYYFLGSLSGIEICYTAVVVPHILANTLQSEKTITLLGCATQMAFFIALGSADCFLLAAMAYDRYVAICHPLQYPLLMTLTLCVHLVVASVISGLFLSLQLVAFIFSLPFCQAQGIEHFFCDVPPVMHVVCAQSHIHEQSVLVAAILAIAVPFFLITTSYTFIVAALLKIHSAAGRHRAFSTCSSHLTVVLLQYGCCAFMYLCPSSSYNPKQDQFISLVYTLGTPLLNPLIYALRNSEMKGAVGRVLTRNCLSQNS
How it was run: as §1

[8] = tested on: T8, O10X1
T8 sequence (whole entry): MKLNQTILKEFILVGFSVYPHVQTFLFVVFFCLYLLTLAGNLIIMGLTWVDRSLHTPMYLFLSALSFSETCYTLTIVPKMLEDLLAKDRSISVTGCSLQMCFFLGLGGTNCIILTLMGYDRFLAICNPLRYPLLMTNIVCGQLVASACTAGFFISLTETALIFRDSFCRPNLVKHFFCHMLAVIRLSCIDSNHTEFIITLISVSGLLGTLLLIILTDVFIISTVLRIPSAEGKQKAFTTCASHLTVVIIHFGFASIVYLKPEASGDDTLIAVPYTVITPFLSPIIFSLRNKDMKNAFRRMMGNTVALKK
How it was run: as §1

[9] = tested on: T9, O11H1
T9 sequence (whole entry): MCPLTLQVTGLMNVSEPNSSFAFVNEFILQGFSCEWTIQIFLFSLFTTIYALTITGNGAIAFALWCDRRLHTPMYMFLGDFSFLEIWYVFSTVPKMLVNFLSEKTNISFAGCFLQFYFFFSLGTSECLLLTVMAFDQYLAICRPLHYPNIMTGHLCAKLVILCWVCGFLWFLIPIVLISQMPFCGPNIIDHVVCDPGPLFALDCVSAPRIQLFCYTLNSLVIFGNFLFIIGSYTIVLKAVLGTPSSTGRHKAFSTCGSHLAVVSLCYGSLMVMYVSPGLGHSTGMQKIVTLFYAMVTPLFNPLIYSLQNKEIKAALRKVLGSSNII
How it was run: as §1

[10] = tested on: T10, O11H2
T10 sequence (whole entry): T9 sequence (whole entry) with F90S, T105K, H146L, C156Y, M181K, V192I, N218S, I235L, T243M, V289E
How it was run: as §1

[11] = tested on: T11, O11H4
T11 sequence (whole entry): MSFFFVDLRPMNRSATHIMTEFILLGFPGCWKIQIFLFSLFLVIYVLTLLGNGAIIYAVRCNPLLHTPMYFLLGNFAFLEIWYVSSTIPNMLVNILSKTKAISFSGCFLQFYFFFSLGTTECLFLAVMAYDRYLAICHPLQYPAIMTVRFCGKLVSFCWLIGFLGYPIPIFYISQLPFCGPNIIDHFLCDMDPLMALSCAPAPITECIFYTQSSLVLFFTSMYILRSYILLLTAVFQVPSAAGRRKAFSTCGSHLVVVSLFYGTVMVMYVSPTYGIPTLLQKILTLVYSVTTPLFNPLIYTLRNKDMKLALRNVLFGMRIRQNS
How it was run: as §1

[12] = tested on: T12, O11L1
T12 sequence (whole entry): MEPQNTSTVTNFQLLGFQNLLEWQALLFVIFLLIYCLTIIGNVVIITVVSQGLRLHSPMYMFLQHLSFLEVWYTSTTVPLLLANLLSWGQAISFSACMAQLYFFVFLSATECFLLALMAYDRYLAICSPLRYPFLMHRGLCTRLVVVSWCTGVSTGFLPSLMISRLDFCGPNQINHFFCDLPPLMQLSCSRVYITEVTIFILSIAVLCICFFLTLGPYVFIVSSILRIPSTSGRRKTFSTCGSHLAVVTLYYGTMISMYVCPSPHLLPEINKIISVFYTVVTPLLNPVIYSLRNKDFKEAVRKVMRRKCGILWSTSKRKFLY
How it was run: as §1

[13] = tested on: T13, O12D2
T13 sequence (whole entry): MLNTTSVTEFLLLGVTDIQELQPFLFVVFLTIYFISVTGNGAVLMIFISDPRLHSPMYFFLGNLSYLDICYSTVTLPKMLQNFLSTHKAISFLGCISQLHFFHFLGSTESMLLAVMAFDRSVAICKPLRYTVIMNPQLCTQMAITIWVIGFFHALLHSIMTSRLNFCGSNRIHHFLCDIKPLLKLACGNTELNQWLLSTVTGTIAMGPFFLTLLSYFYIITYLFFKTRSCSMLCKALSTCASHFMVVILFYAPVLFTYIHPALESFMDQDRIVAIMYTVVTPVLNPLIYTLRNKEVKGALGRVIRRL
How it was run: as §1

[14] = tested on: T14, O13C3
T14 sequence (whole entry): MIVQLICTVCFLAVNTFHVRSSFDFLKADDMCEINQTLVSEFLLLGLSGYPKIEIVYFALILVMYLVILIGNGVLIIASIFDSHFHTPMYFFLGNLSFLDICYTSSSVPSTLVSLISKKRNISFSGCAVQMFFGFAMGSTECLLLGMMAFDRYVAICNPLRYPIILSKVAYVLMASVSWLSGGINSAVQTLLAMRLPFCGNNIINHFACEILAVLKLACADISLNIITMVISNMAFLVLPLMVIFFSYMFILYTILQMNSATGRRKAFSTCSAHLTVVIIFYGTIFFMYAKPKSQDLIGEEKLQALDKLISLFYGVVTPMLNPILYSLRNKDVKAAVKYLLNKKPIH
How it was run: as §1

[15] = tested on: T15, O10J3
T15 sequence (whole entry): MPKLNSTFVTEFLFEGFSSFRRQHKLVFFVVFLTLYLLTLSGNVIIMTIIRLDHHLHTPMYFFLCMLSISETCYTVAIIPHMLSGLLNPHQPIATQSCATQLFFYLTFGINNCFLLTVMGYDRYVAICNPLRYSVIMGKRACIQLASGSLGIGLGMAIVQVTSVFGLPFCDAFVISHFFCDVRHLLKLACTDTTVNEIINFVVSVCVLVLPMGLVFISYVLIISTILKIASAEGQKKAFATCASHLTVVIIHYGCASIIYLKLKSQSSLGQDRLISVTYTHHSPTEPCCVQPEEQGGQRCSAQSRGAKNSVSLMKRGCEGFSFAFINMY
How it was run: as §1

[16] = tested on: T16, O11G2
T16 sequence (whole entry): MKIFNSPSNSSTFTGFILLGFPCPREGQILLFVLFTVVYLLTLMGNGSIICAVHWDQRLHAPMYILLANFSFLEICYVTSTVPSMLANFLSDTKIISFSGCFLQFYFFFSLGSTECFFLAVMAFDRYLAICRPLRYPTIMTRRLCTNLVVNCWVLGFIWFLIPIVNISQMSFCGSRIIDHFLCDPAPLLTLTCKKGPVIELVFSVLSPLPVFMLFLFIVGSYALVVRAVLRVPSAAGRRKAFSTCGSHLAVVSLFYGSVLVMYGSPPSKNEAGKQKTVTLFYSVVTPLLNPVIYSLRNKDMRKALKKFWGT
How it was run: as §1

[17] = tested on: T17, O11H1; remark: listed apart in the source
T17 sequence (whole entry): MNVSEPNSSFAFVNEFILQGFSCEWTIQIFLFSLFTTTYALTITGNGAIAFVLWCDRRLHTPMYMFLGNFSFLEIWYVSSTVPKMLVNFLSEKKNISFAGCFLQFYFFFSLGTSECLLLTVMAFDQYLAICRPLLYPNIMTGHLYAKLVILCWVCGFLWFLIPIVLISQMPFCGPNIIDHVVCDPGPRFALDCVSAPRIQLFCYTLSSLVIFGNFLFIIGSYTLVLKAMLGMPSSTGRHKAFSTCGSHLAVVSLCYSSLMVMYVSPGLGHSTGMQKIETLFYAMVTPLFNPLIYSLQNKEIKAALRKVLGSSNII
How it was run: as §1

Measured: odorant receptor agonist call

O=C1CCCCC1
not listed: [15] | [16] | [17]
inactive: all other assays above

CCCCCCCCOC(C)=O
inactive: all assays above

CCCC(=O)O
active: [15]
inactive: all other assays above

From the M2OR odorant receptor database
